From patent US12521402B2, “Biomarker and drug combinations for heart failure prediction” (Endothelium Scanning Nanotechnology Limited, priority 2022, dated 2026) come the findings set out here.

The data set can be described thus: Saliva proteomics: biomarker quantification by mass spectrometry SWATH in participants at risk of heart failure vs controls. Also noted: species or system human. Particulars: for AtRisk average: 'at risk' of heart failure group mean; for Control average: control group mean.
The mark [1] stands for this setting: differential expression (fold) between control and at-risk averages, saliva.
The mark [2] stands for this setting: saliva, mass spectrometry SWATH, 20 samples.
Where [3] appears, read: differential expression (fold) control vs 'at risk', printed as larger/smaller average whatever the direction.
Where [4] appears, read: saliva, mass spectrometry SWATH quantification.
The mark [5] stands for this setting: differential expression (fold) control vs 'at risk' group, saliva.
[6] abbreviates: saliva, mass spectrometry SWATH quantification, 20 samples.

Turning to AGRIN, the “Control vs Risk” value under setting [1] is reported as 1.57. Besides, under setting [2], the AtRisk average is listed as 38,787 ng/ml and the Control average is 60,836 ng/ml.
For ANXA5, under setting [3], the “Control vs Risk” value came out at 2.57. Under setting [4], the AtRisk average is recorded as 940,764 ng/ml and the Control average is reported as 366,465 ng/ml.
Take ASC: under setting [5], the “Control vs Risk” value turned out to be 2.27. Also, under setting [6], the AtRisk average is given as 283,431 ng/ml and the Control average is 125,033 ng/ml.
The corresponding values for ATOX1 are 2.13, 26,304 ng/ml and 12,336 ng/ml.
Regarding CALL3, the “Control vs Risk” value under setting [3] turned out to be 4.02. For the same substance, under setting [4], the AtRisk average was 4,638,566 ng/ml and the Control average is listed as 1,153,513 ng/ml.
As for CALU, under setting [5], the “Control vs Risk” value is 2.40. Besides, under setting [6], the AtRisk average is recorded as 36,213 ng/ml and the Control average is given as 15,110 ng/ml.
On to CAZA2, for which, under setting [1], the “Control vs Risk” value is reported as 1.81. Also, under setting [2], the AtRisk average is 277,691 ng/ml and the Control average is 502,909 ng/ml.
In the same order, the values of CBPE are 1.84, 935,148 ng/ml and 1,719,295 ng/ml.
Turning to CHID1, the “Control vs Risk” value under setting [3] is 2.73. For the same substance, under setting [4], the AtRisk average was 9,956 ng/ml and the Control average was 27,186 ng/ml.
Regarding CHM1B, under setting [1], the “Control vs Risk” value is recorded as 1.53. Moreover, under setting [2], the AtRisk average is listed as 59,139 ng/ml and the Control average is 38,770 ng/ml.
As to “ELAF (AQEPVKGPVSTKPGSCPIILIRCAMLNPPNRCLKDTDCPGIKKCCEGSCGMACFVPQ; Elafin; UniProt P19957 61-117, looked up)”, the “Control vs Risk” value under setting [3] came to 2.92. For the same substance, under setting [4], the AtRisk average is 196,903 ng/ml and the Control average is recorded as 67,483 ng/ml.
Turning to FCGBP, the “Control vs Risk” value under setting [1] was found to be 1.80. Under setting [2], the AtRisk average was 2,501,142 ng/ml and the Control average is listed as 4,509,992 ng/ml.
The corresponding values for FURIN are 1.83, 667,143 ng/ml and 1,220,714 ng/ml.
As to GPC5B, the “Control vs Risk” value under setting [3] came to 3.98. Under setting [4], the AtRisk average is given as 28,524 ng/ml and the Control average is reported as 113,392 ng/ml.
For the substance GRB2, under setting [3], the “Control vs Risk” value stood at 2.62. Also, under setting [4], the AtRisk average is reported as 148,197 ng/ml and the Control average is given as 56,510 ng/ml.
Regarding HEM2, the “Control vs Risk” value under setting [5] is given as 2.04. Under setting [6], the AtRisk average is 108,388 ng/ml and the Control average was 220,656 ng/ml.
As to HEMO, the “Control vs Risk” value under setting [5] is 1.93. Besides, under setting [6], the AtRisk average is 4,369,070 ng/ml and the Control average is recorded as 2,258,007 ng/ml.
For HV102, under setting [3], the “Control vs Risk” value is 3.54. Further, under setting [4], the AtRisk average is given as 874,755 ng/ml and the Control average is 3,094,358 ng/ml.
Turning to HV374, the “Control vs Risk” value under setting [1] turned out to be 1.78. In addition, under setting [2], the AtRisk average was 1,664,922 ng/ml and the Control average is given as 937,879 ng/ml.
As for HV434, the “Control vs Risk” value under setting [3] worked out at 2.66. Further, under setting [4], the AtRisk average is 200,507 ng/ml and the Control average is listed as 532,600 ng/ml.
IGJ: under setting [3], the “Control vs Risk” value amounted to 3.50. For the same substance, under setting [4], the AtRisk average is recorded as 72,868,065 ng/ml and the Control average is reported as 254,949,858 ng/ml.
Regarding IGLC2, the “Control vs Risk” value under setting [5] amounted to 1.92. Also, under setting [6], the AtRisk average was 18,916,758 ng/ml and the Control average is 36,285,258 ng/ml.
As to IGLC7, under setting [3], the “Control vs Risk” value came to 13.72. Under setting [4], the AtRisk average was 1,339,761 ng/ml and the Control average is given as 97,679 ng/ml.
Regarding KI21A, the “Control vs Risk” value under setting [3] came out at 10.00. Also, under setting [4], the AtRisk average is given as 706,251 ng/ml and the Control average was 7,062,544 ng/ml.
Regarding KV311, under setting [5], the “Control vs Risk” value was 2.29. Moreover, under setting [6], the AtRisk average is 5,711,696 ng/ml and the Control average is reported as 13,090,866 ng/ml.
With LCN1, the “Control vs Risk” value under setting [3] was 3.47. Under setting [4], the AtRisk average was 105,334,304 ng/ml and the Control average is given as 30,330,854 ng/ml.
Consider LV325, for which the “Control vs Risk” value under setting [3] is listed as 3.21. Besides, under setting [4], the AtRisk average is 93,280 ng/ml and the Control average is on record as 299,219 ng/ml.
For the substance LYSC, under setting [3], the “Control vs Risk” value was 2.74. Besides, under setting [4], the AtRisk average was 300,657,309 ng/ml and the Control average is reported as 823,035,736 ng/ml.
In the case of MUC5B, under setting [3], the “Control vs Risk” value came to 3.18. Also, under setting [4], the AtRisk average is given as 324,735,024 ng/ml and the Control average is 1,033,569,305 ng/ml.
Consider NPC2, for which the “Control vs Risk” value under setting [1] amounted to 1.66. For the same substance, under setting [2], the AtRisk average is recorded as 1,004,339 ng/ml and the Control average is on record as 605,322 ng/ml.
On to PSD11, for which the “Control vs Risk” value under setting [3] was determined as 2.68. Further, under setting [4], the AtRisk average was 96,056 ng/ml and the Control average was 35,871 ng/ml.
In the same order, the values of PSMA8 are 3.12, 66,929 ng/ml and 21,481 ng/ml.
For the substance RAB1B, the “Control vs Risk” value under setting [5] is reported as 2.29. In addition, under setting [6], the AtRisk average is on record as 714,602 ng/ml and the Control average was 312,439 ng/ml.
With SET, the “Control vs Risk” value under setting [5] turned out to be 2.39. In addition, under setting [6], the AtRisk average is on record as 81,229 ng/ml and the Control average was 34,044 ng/ml.
Consider SIL1, for which, under setting [3], the “Control vs Risk” value worked out at 2.58. Moreover, under setting [4], the AtRisk average is 67,153 ng/ml and the Control average is 26,005 ng/ml.
Take SODC: the “Control vs Risk” value under setting [1] was found to be 1.68. Under setting [2], the AtRisk average is listed as 1,051,120 ng/ml and the Control average is 626,977 ng/ml.
On to “STAT (DSSEEKFLRRIGRFGYGYGPYQPVPEQPLYPQPYQPQYQQYTF; UniProt P02808 20-62, looked up)”, for which the “Control vs Risk” value under setting [3] is given as 2.58. Further, under setting [4], the AtRisk average is given as 82,053,253 ng/ml and the Control average is on record as 31,783,683 ng/ml.
On to STIP1, for which, under setting [5], the “Control vs Risk” value is listed as 2.12. Also, under setting [6], the AtRisk average is on record as 86,306 ng/ml and the Control average is listed as 183,292 ng/ml.
Take TBA1B: under setting [5], the “Control vs Risk” value is given as 2.15. Further, under setting [6], the AtRisk average is recorded as 221,191 ng/ml and the Control average was 474,945 ng/ml.
In the case of TEBP, the “Control vs Risk” value under setting [5] came out at 2.35. Under setting [6], the AtRisk average is 113,156 ng/ml and the Control average was 48,241 ng/ml.
In the case of TIM13, under setting [5], the “Control vs Risk” value stood at 2.00. Further, under setting [6], the AtRisk average was 190,669 ng/ml and the Control average was 95,356 ng/ml.
Regarding TM11D, the “Control vs Risk” value under setting [5] was found to be 1.95. Also, under setting [6], the AtRisk average was 1,224,393 ng/ml and the Control average is listed as 626,942 ng/ml.
Consider TRY1, for which, under setting [5], the “Control vs Risk” value is reported as 2.43. Under setting [6], the AtRisk average is given as 326,267 ng/ml and the Control average is on record as 792,519 ng/ml.
Take TSP1: the “Control vs Risk” value under setting [1] stood at 1.50. Moreover, under setting [2], the AtRisk average was 1,536,784 ng/ml and the Control average was 2,297,854 ng/ml.
As to UFC1, under setting [5], the “Control vs Risk” value is 2.00. For the same substance, under setting [6], the AtRisk average is 50,044 ng/ml and the Control average is reported as 100,021 ng/ml.
